From patent publication US6599914B2, “Inhibition of cytokine generation” (Schering Corporation, priority 2001, dated 2003)
Entries after “also recorded” stand apart in the source; their conditions may differ.

Key:
IL-4 mRNA [1] = conditions: desloratadine 10 μM; anti-IgE; 2 h
human basophils [2] = assay: cells; conditions: 18 h, read-out: IC50, IL-3-mediated IL-13 production
human basophils [3] = tested on: human basophils
human basophils [4] = assay: cells; conditions: read-out: inhibition of IL-13 at initial plateau
human basophils [5] = conditions: data not shown
[6] = tested on: human mast and basophilic cell lines; conditions: in vitro; cited from earlier work
human basophils [7] = conditions: ionomycin 500 ng/ml; 0.1, 1.0 and 10 μM desloratadine
human basophils [8] = conditions: inhibition seen between 1 μM and 10 μM
human basophils [9] = assay: cells; conditions: read-out: inhibition of cytokine (IL-4 and IL-13) secretion
IL-4 mRNA [10] = assay: cells; conditions: Homo sapiens, 2 h, read-out: inhibition of IL-4 protein secretion in the same cultures
[11] = anti-IgE, concentrations between 1 μM and 10 μM, 4 h

Question: With `Clc1ccc2c(c1)CCc1cccnc1C2=C1CCNCC1` [desloratadine] as the compound, how does the “inhibition of histamine secreted into the supernatants of the mRNA cultures” value (IL-4 mRNA [1]) read?
Answer: inhibited

Question: What about the IC50 (human basophils [2]) of the same compound?
Answer: ~2000 nM

Question: And the “inhibition of LTC4 release” value (human basophils [3]; [11])?
Answer: dose-dependently inhibited

Question: What about the “inhibition of histamine release” value (human basophils [3]; [11]) of the same compound?
Answer: dose-dependently inhibited

Question: What about the “inhibition of IL-4 secretion, basophils purified to greater than 99%” value (human basophils [3]; anti-IgE, pure basophils) of the same compound?
Answer: also evident

Question: What about the “inhibition of histamine release, pure basophils” value (human basophils [3]; anti-IgE, pure basophils) of the same compound?
Answer: inhibited

Question: And the “times more potent at inhibiting IL-4 and IL-13 secretion than histamine and LTC4 release” value (human basophils [3]; induced by anti-IgE, same culture supernatants)?
Answer: 6-7 fold

Question: What about the inhibition at 1 µM (human basophils [4]) of the same compound?
Answer: 50 to 70%

Question: And the “inhibition of LTC4 made in response to FMLP stimulation” value (human basophils [5]; FMLP)?
Answer: not inhibited

Question: What about the “inhibition of histamine made in response to FMLP stimulation” value (human basophils [5]; FMLP) of the same compound?
Answer: not inhibited

Question: What about the “inhibition of histamine and/or LTC4 released with IgE-independent stimuli” value (human basophils [5]; ionomycin, fmlp, phorbol ester, any concentration tested) of the same compound?
Answer: no evidence

Question: And the “inhibition of release of IL-6” value [6]?
Answer: up to 40%

Question: What about the “inhibition of release of IL-8” value [6] of the same compound?
Answer: up to 50%

Question: And the “inhibition of IL-4 secreted in response to ionomycin” value (human basophils [7])?
Answer: remarkably inhibited; also recorded: quite effective

Question: What about the “inhibition of IL-13 induced by PMA” value (human basophils [8]) of the same compound?
Answer: inhibited

Question: What about the inhibition at 10 µM (human basophils [9]) of the same compound?
Answer: > 95%

Question: What about the inhibition at 10 µM (IL-4 mRNA [10]) of the same compound?
Answer: > 95%
